Taken from: PubChem BioAssay AID1259254 (NCATS, 2017)

Screen: 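Gene knock-downs that lead to re-replication, shown by excess G2 DNA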 (primary screen)
Cells: human HCT116 colorectal cancer cells
Knock-down reagent: single siRNA against human genes
Duration: 3 days
Read-out: 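Imaged Hoechst DNA stain sorts each cell into a cycle phase by DNA amount; per plate, G2 fraction set to 0% for non-targeting and 100% for GMNN siRNA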
Direction: G2 robust z-score and G2 cells, % of GMNN control: higher = more G2 cells, more excess DNA replication
Rule for the call: 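An siRNA counts as active if its G2 robust z-score lies at least 5 MADs above the screen median; here such calls match roughly 38% of GMNN control or more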
The whole screen tested about 59,000 reagents; this is a part drawn at random. Of all reagents, about 1,550 (2.6%) were called active. 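G2 share is only a proxy for re-replication; each gene was hit by three separate siRNAs, and active genes were retested.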 Reagents against one gene are numbered here. Not all columns of the deposit are shown. No sequences are given here. Not stated in the record: the amount of reagent.

target | reagent no. | G2 robust z-score | G2 cells, % of GMNN control | Call
TANC2 | 1 | -0.605 | -1.29 | inactive
TANC2 | 2 | -0.536 | -0.803 | inactive
TANC2 | 3 | -0.203 | 1.54 | inactive
LYN | 1 | 0.984 | 9.89 | inactive
LYN | 2 | -0.864 | -3.11 | inactive
LYN | 3 | 0.312 | 5.16 | inactive
BORCS8-MEF2B | 1 | -0.354 | 0.479 | inactive
BORCS8-MEF2B | 2 | -1.04 | -4.37 | inactive
BORCS8-MEF2B | 3 | 7.14 | 53.2 | active
ASB17 | 1 | 0.518 | 6.61 | inactive
ASB17 | 2 | -0.0887 | 2.34 | inactive
ASB17 | 3 | -0.596 | -1.22 | inactive
RBM28 | 1 | 0.95 | 9.65 | inactive
RBM28 | 2 | -0.955 | -3.75 | inactive
RBM28 | 3 | -0.399 | 0.161 | inactive
HAS1 | 1 | -1.01 | -4.16 | inactive
HAS1 | 2 | -1.26 | -5.92 | inactive
HAS1 | 3 | 0.0166 | 3.08 | inactive
SALL2 | 1 | 1.17 | 11.2 | inactive
SALL2 | 2 | 1.67 | 14.7 | inactive
SALL2 | 3 | -0.0138 | 2.87 | inactive
OR2M2 | 1 | -0.056 | 2.57 | inactive
OR2M2 | 2 | 2.92 | 23.5 | inactive
OR2M2 | 3 | 0.587 | 7.1 | inactive
PRSS44P | 1 | 0.798 | 8.58 | inactive
PRSS44P | 2 | 0.902 | 9.31 | inactive
PRSS44P | 3 | -0.455 | -0.233 | inactive
PRSS44P | 4 | -0.351 | 0.499 | inactive
PRSS44P | 5 | -0.244 | 1.25 | inactive
PRSS44P | 6 | 0.346 | 5.4 | inactive
ATF7IP | 1 | 1.88 | 16.2 | inactive
ATF7IP | 2 | 0.394 | 5.74 | inactive
ATF7IP | 3 | -0.00949 | 2.9 | inactive
B4GALT6 | 1 | -0.176 | 1.73 | inactive
B4GALT6 | 2 | -0.22 | 1.42 | inactive
B4GALT6 | 3 | 3.9 | 30.4 | inactive
NDUFA2 | 1 | 0.725 | 8.07 | inactive
NDUFA2 | 2 | -0.533 | -0.785 | inactive
NDUFA2 | 3 | -0.546 | -0.875 | inactive
RMC1 | 1 | -1.1 | -4.77 | inactive
RMC1 | 2 | 0.462 | 6.22 | inactive
RMC1 | 3 | -0.454 | -0.225 | inactive
ADGRG7 | 1 | -0.966 | -3.83 | inactive
ADGRG7 | 2 | -0.937 | -3.63 | inactive
ADGRG7 | 3 | 0.107 | 3.72 | inactive
PGPEP1 | 1 | -0.743 | -2.26 | inactive
PGPEP1 | 2 | -0.699 | -1.95 | inactive
PGPEP1 | 3 | 0.351 | 5.43 | inactive

Just “G2 cells, % of GMNN control” (7 entries from above):
OR2M2 #2 = 23.5
OR2M2 #3 = 7.1
PRSS44P #1 = 8.58
PRSS44P #2 = 9.31
PRSS44P #3 = -0.233
PRSS44P #4 = 0.499
PRSS44P #5 = 1.25
